In publication PMC11432723:
No constants are given. Whether binding was seen depends on the method and setting. Binding seen in cells or lysates may run through a third protein. Some entries that bind do so weakly or less than the wild type.

Sequences of proteins named here, by UniProt entry; tags and fusion partners are left off.
UniProt Q86TM6: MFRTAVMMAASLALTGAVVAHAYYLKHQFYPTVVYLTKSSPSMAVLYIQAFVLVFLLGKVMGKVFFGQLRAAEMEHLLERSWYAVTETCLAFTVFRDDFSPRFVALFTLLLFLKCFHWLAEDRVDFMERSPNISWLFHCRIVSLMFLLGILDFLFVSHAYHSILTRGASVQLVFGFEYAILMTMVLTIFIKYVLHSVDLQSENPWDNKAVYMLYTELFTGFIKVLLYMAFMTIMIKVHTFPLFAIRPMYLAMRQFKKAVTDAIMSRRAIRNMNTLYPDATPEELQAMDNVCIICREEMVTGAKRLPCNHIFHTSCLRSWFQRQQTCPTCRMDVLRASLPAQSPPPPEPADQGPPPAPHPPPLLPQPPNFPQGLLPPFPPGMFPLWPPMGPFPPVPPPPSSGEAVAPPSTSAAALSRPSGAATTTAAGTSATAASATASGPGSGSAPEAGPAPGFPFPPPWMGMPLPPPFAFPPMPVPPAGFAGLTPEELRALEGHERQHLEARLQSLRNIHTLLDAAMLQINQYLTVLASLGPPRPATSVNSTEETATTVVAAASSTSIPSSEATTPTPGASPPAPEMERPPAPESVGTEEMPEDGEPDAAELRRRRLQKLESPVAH
UniProt Q9UNE7: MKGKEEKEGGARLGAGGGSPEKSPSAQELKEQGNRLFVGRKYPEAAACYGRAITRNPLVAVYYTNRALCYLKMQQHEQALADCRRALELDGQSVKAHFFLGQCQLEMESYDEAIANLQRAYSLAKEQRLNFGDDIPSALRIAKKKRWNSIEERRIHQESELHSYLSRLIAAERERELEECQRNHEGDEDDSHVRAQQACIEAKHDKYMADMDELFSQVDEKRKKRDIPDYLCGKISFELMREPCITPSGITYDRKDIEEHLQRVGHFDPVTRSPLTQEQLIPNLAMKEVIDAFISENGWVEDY

Biological target: T1, myocilin (human (endogenous in primary TMC strain)) (UniProt Q99972)
T1 sequence: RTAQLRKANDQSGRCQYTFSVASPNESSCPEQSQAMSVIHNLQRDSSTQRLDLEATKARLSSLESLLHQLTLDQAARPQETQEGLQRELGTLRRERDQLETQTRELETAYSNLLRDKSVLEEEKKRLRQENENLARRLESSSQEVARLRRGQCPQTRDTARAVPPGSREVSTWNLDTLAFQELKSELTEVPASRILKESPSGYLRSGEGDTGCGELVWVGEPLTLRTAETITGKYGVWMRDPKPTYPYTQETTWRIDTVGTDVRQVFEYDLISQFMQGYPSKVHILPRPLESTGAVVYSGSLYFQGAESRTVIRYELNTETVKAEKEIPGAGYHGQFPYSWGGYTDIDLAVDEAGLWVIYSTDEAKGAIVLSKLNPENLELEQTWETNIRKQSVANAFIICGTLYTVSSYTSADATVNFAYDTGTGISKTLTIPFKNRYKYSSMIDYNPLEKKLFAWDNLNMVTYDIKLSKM
Assay: co-IP; anti-myocilin antibody (clone 7.1) on M-270 epoxy Dynabeads, soluble fraction of lysates of untreated TMCs; lysis buffer with 1 mM DTT, 50 mM NaCl and inhibitors; slow mixing at 4 °C; species-matching control IgGs in parallel; denaturing and reducing Western blot

binding | Substance
no binding | synoviolin (SYVN1) (from UniProt Q86TM6 1-617) (enzyme)
binds | STUB1/CHIP (from UniProt Q9UNE7 1-303) (enzyme)
